Some of these results come from one statement about several compounds together. For at least one compound, name, drawing or mass did not settle the structure.
How the values were obtained:
Format in all cases: in vivo
[1] = test system: Spodoptera Littoralis (Egyptian Cotton Leaf Worm); assay: Spodoptera littoralis cotton leaf disc spray test; conditions: application rate of 200 ppm; L1 larvae; 3 days after infestation
[2] = test system: Tetranychus urticae (Two-Spotted Spider Mite); assay: Tetranychus urticae bean leaf disc spray test; conditions: application rate of 200 ppm; 8 days after infestation
Description: Tetranychus urticae (Two-Spotted Spider Mite):
Bean leaf discs on agar in 24-well microtiter plates were sprayed with aqueous test solutions prepared from 10,000 ppm DMSO stock solutions. After drying the leaf discs were infested with a mite population of mixed ages. The samples were assessed for mortality on mixed population (mobile stages) 8 days after infestation.

[3] = test system: Plutella xylostella (Diamond Back Moth); assay: Plutella xylostella L2 larvae test on artificial diet; conditions: application rate of 200 ppm, 5 days after infestation
Description: Plutella xylostella (Diamond Back Moth):
(§1) 24-well microtiter plates with artificial diet were treated with aqueous test solutions prepared from 10,000 ppm DMSO stock solutions by pipetting. After drying, the plates were infested with L2 larvae (10 to 15 per well). The samples were assessed for mortality and growth inhibition in comparison to untreated samples 5 days after infestation.

[4] = test system: Diabrotica balteata (Corn Root Worm); assay: Diabrotica balteata L2 larvae test on artificial diet; conditions: application rate of 200 ppm, 5 days after infestation
Description: Diabrotica balteata (Corn Root Worm):
as §1, with “(6” for “(10”, “10” for “15”

[5] = test system: Heliothis virescens (Tobacco Budworm); assay: Heliothis virescens egg/larval test on artificial diet; conditions: application rate of 200 ppm; eggs 0-24 h old; 5 days after infestation
Description: Heliothis virescens (Tobacco Budworm):
Eggs (0-24 h old) were placed in 24-well microtiter plates on artificial diet and treated with aqueous test solutions prepared from 10,000 ppm DMSO stock solutions by pipetting. The samples were assessed for egg and larval mortality 5 days after infestation.

[6] = test system: Thrips tabaci (Onion Thrips); assay: Thrips tabaci sunflower leaf disc spray test; conditions: application rate of 200 ppm; population of mixed ages; 6 days after infestation
Description: Thrips tabaci (Onion Thrips):
Sunflower leaf discs were placed on agar in 24-well microtiter plates and sprayed with aqueous test solutions prepared from 10,000 ppm DMSO stock solutions. After drying the leaf discs were infested with a thrips population of mixed ages. The samples were assessed for mortality 6 days after infestation.

SMILES	control (at least one of mortality, anti-feedant effect, growth inhibition) [1]	mortality on mixed population (mobile stages) [2]	effect in at least one of the two categories (mortality or growth inhibition) [3]	effect in at least one of the two categories (mortality or growth inhibition) [4]	egg or larval mortality [5]	mortality [6]
CC(C)C(=O)Nc1cccc(-c2ccc3c(c2)CC(c2cccc(C(F)(F)F)c2)(C(F)(F)F)O3)c1 (stereo not drawn) [Compound 189]	at least 80%	at least 80%	≥ 80%	≥ 80%	≥ 80%	≥ 80%
N#Cc1ccc(-c2ccc3c(c2)CC(c2cccc(C(F)(F)F)c2)(C(F)(F)F)O3)cc1NC(=O)CC(F)(F)F (stereo not drawn) [Compound 197]	at least 80%	at least 80%	≥ 80%	≥ 80%	≥ 80%	≥ 80%
O=C(Nc1cccc(-c2ccc3c(c2)CC(c2cccc(C(F)(F)F)c2)(C(F)(F)F)O3)c1)C1CC1F (stereo not drawn) [Compound 191]	at least 80%	at least 80%	≥ 80%	≥ 80%	≥ 80%	≥ 80%
CSCC(=O)Nc1cccc(-c2ccc3c(c2)CC(c2cc(Cl)c(F)c(Cl)c2)(C(F)(F)F)O3)c1 (stereo not drawn) [Compound 134]	at least 80%	at least 80%	≥ 80%	≥ 80%	≥ 80%	≥ 80%
O=C(CC(F)(F)F)Nc1cccc(-c2ccc3c(c2)CC(c2cc(Cl)c(F)c(Cl)c2)(C(F)(F)F)O3)c1 (stereo not drawn) [Compound 177]	at least 80%	at least 80%	≥ 80%	≥ 80%	≥ 80%	≥ 80%
O=C(Nc1cc(-c2ccc3c(c2)CC(c2cc(Cl)cc(Cl)c2)(C(F)(F)F)O3)ccc1Cl)C1CC1 (stereo not drawn) [Compound 152]	at least 80%	at least 80%	≥ 80%	≥ 80%	≥ 80%	≥ 80%
N#Cc1ccc(-c2ccc3c(c2)CC(c2cc(Cl)cc(Cl)c2)(C(F)(F)F)O3)cc1NC(=O)C1CS(=O)(=O)C1 (stereo not drawn) [Compound 210]	at least 80%	at least 80%	≥ 80%	≥ 80%	≥ 80%	≥ 80%
O=C(CC1CC1)Nc1cccc(-c2ccc3c(c2)CC(c2cccc(C(F)(F)F)c2)(C(F)(F)F)O3)c1 (stereo not drawn) [Compound 166]	at least 80%	at least 80%	≥ 80%	≥ 80%	≥ 80%	≥ 80%
CC(C)C(=O)Nc1cc(-c2ccc3c(c2)CC(c2cc(Cl)c(Cl)c(Cl)c2)(C(F)(F)F)O3)ccc1C#N (stereo not drawn) [Compound 234]	at least 80%	at least 80%	≥ 80%	≥ 80%	≥ 80%	≥ 80%
N#CCCC(=O)Nc1cccc(-c2ccc3c(c2)CC(c2cccc(C(F)(F)F)c2)(C(F)(F)F)O3)c1 (stereo not drawn) [Compound 118]	at least 80%	at least 80%	≥ 80%	≥ 80%	≥ 80%	≥ 80%

Reference: US9598389B2, “Dihydrobenzofuran derivatives as insecticidal compounds” (SYNGENTA PARTICIPATIONS AG, priority 2013, dated 2017)
